Measurements reported in PubChem BioAssay AID1159578 (Peter MacCallum Cancer Centre, 2015).

Test: 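Genome-wide hunt for genes controlling movement of lymphatic endothelial cells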 (primary screen)
Cells: human lymphatic endothelial cells
Reagents: siRNA pool against human genes, 40 nM
Time to read-out: 48 h after transfection
Read-out: 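High-content imaging of dye-stained cells in a scratch assay measures filled wound area and nuclei per well; duplicate means given as ratio to mock and robust z-score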
Direction: migration robust z-score: higher = faster migration into the scratch; nuclei per well: higher = more cells in the well
Rule for the call: 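Migration changed when robust z exceeds 2 or falls below -2 and mean nuclei number is at least 3300; otherwise not called changed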
Meaning of the calls: active = migration changed; inactive = no migration change, or too few cells
In all, the deposit lists about 18,000 reagents; shown is an unselected part. About 1,030 of all reagents (5.7%) count as active. 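Inactive calls also include pools with fewer than 3300 nuclei, whose migration was not assessed.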 The raw values are shown without normalisation. Further read-outs or replicates are left out here.

target | migration robust z-score | nuclei per well, duplicate mean | call
H1-7 | 0.48 | 6703 | inactive
POU3F4 | -1.22 | 5658 | inactive
DMRT2 | -0.57 | 5000 | inactive
RNF40 | -1.24 | 4116 | inactive
AKAP8L | 0.9 | 5694 | inactive
RBP4 | 0 | 3430 | inactive
COG4 | 0.64 | 5231 | inactive
RMND5A | -1.81 | 4758 | inactive
ZNF443 | -1.58 | 4913 | inactive
OR6C68 | -0.55 | 5224 | inactive
VPREB3 | 1.96 | 6342 | inactive
CPT1B | -0.54 | 6314 | inactive
CIP2A | -1.07 | 5719 | inactive
SMC1B | -0.16 | 7322 | inactive
GAGE5 | -0.44 | 4634 | inactive
DNAJB5 | -0.46 | 5237 | inactive
TCF4 | -0.08 | 3841 | inactive
NUP43 | -2.08 | 4270 | active
SOX18 | -0.7 | 5034 | inactive
LOXL3 | 0.5 | 5190 | inactive
NLRC5 | 0.42 | 5720 | inactive
SPATA17 | -2.77 | 2769 | inactive
ARC | 1.38 | 3758 | inactive
RASD1 | -0.42 | 5530 | inactive
NALCN | -0.62 | 5124 | inactive
TBCCD1 | 0.67 | 6200 | inactive
DDX50 | 0.8 | 5926 | inactive
XPOT | 1.04 | 5692 | inactive
GPR21 | 0.39 | 5694 | inactive
MRPS35 | -0.34 | 5144 | inactive
FCRL1 | -0.7 | 6521 | inactive
GSAP | 1.14 | 6444 | inactive
CREG1 | 0.72 | 4778 | inactive
KCNU1 | -1.22 | 6068 | inactive
SRRM1 | 1.24 | 5418 | inactive
SNX22 | 0.07 | 5320 | inactive
TRIM46 | 0.62 | 4906 | inactive
NAIF1 | -1.21 | 6300 | inactive
BICC1 | 0.45 | 6348 | inactive
